From paper PMC4183699, “A Relay Network of Extracellular Heme-Binding Proteins Drives C. albicans Iron Acquisition from Hemoglobin” (PLoS Pathogens, 2014)
No constants are given. Whether binding was seen depends on the method and setting. Tags and fused reporters may be left off the sequences shown.

By UniProt entry, the sequences of proteins in these tests, tags left out. Where a name states a change or a piece, a line headed by the entry shows the natural chain unless it says otherwise.
UniProt P01966: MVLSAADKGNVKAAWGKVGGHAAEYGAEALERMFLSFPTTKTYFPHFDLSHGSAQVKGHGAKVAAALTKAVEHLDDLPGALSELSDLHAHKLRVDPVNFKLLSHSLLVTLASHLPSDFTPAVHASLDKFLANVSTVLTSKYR

Target: bovine hemoglobin (bovine) (UniProt P01966)
Assay: pull-down; bovine hemoglobin covalently bound to CnBr-activated Sepharose-4B beads; 50 µl of 50 µM apo-protein mixed with 10 µl Hb-beads, 30 minutes at room temperature, supernatant separated from the beads; both purified

Binder	binding
Pga7(18–195)-Myc-6×His (domain or fragment, Pga7, C. albicans CFEM protein, residues 18-195: from the predicted signal peptide cleavage site to the predicted GPI anchor addition site; PGA7 nucleotides +52 to +585 cloned EcoRI-XbaI into pPICZalphaA (KB2259); Used as apo-protein (heme removed) or as holo-protein (loaded with heme, not covalent); both are this one construct; The vector pPICZalphaA may leave a few residues at the N-terminus …) NFGTYPKVPKTASINGFADPIYDLLPDCAKECVKFSTSNTPCPYWDTGCFCVMPQWAGLVGQCVAQKCKGEDVASARFLATSLCSVVGANTWMMPASISSMLSTAAGDAKEVTTIEGKTAKSWVTAPGSAAGSVVSETGSASETGSSESAQSTTTGSSSTGSSSTDSSSSSSSSPSSS	no binding (tested: 50 µM)
Rbt5(23–219)-Myc-6×His (domain or fragment, UniProt Q59UT4 23-219) EGDNPYTIFPSVAKTASINGFADRIYDQLPECAKECVKQSTSSTPCPYWDTGCLCVMPQFAGAVGNCVAKNCKGKEVGSVESLATSICSSAGVWEPYWMIPSSVSDALAKAADAAAETTAESTTAESTAAETTKAEETSAKETTAAETSKAAESSAPAETSKAEETSKAAETTKAEESSVAQSSSSAADVASVSVEA	no binding (tested: 50 µM)
